Measurements reported in doi:10.1101/411223.
For at least one entry, the source does not settle the construct or the ends of the probe. For part of these data: A negative result means that nothing was seen under these conditions. For part of these data: A weaker result is weaker than the reference pair of the same experiment.

Amino acid sequences for entries named in this document (tags omitted). Residues count along the entry.
UniProt P13393, 61-240: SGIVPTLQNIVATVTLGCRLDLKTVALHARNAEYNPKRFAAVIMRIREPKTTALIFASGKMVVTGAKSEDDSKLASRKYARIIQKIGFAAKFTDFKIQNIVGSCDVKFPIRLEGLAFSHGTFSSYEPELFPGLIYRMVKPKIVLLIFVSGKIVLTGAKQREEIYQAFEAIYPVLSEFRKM

Assays:
[1] = target: yTBP (61-240) (Saccharomyces cerevisiae) (UniProt P13393); assay: EMSA; settings: residues 61-240
yTBP (61-240) + TFIIA = assay: EMSA

**Q.** Does “TGTATGTATATAAAAC (double strand) [FAM TATA-box dsDNA]” bind ([1]; 100 nM DNA, yTBP 10-400 nM)?
**A.** Result: binds

**Q.** Does “TGTATGTATATAAAAC (double strand) [FAM TATA-box dsDNA]” bind ([1]; yTBP 100 nM with Kap114p >100 nM, shift disappears)?
**A.** Result: no binding

**Q.** Does “TGTATGTATATAAAAC (double strand) [FAM TATA-box dsDNA]” bind (yTBP (61-240) + TFIIA; 100 nM yTBP and DNA, dose-dependent supershift with TFIIA, ternary complex)?
**A.** Result: binds

**Q.** Does “TGTATGTATATAAAAC (double strand) [FAM TATA-box dsDNA]” bind (yTBP (61-240) + TFIIA; with Kap114p (Δ347-371) up to 800 nM, supershift still observed)?
**A.** Result: binds

**Q.** Does “TGTATGTATATAAAAC (double strand) [FAM TATA-box dsDNA]” bind (yTBP (61-240) + TFIIA; with Kap114p (Δ899-956) up to 800 nM, supershift still observed)?
**A.** Result: binds

**Q.** Does “TGTATGTATATAAAAC (double strand) [FAM TATA-box dsDNA]” bind (yTBP (61-240) + TFIIA; with increasing Kap114p, supershift dramatically reduced)?
**A.** Result: binds more weakly
